Reference: the supplement of paper PMC10849652
This is one part of the list.

Chains of the proteins cited; added tags and fusions are not shown. Lines headed by an entry give the natural chain unless they say otherwise; changes in a name come on top.
UniProt Q8N9Q2: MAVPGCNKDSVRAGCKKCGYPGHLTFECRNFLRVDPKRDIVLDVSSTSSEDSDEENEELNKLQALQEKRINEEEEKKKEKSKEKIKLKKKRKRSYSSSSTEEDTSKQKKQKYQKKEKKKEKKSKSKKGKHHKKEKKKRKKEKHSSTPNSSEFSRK
UniProt Q9P2P6: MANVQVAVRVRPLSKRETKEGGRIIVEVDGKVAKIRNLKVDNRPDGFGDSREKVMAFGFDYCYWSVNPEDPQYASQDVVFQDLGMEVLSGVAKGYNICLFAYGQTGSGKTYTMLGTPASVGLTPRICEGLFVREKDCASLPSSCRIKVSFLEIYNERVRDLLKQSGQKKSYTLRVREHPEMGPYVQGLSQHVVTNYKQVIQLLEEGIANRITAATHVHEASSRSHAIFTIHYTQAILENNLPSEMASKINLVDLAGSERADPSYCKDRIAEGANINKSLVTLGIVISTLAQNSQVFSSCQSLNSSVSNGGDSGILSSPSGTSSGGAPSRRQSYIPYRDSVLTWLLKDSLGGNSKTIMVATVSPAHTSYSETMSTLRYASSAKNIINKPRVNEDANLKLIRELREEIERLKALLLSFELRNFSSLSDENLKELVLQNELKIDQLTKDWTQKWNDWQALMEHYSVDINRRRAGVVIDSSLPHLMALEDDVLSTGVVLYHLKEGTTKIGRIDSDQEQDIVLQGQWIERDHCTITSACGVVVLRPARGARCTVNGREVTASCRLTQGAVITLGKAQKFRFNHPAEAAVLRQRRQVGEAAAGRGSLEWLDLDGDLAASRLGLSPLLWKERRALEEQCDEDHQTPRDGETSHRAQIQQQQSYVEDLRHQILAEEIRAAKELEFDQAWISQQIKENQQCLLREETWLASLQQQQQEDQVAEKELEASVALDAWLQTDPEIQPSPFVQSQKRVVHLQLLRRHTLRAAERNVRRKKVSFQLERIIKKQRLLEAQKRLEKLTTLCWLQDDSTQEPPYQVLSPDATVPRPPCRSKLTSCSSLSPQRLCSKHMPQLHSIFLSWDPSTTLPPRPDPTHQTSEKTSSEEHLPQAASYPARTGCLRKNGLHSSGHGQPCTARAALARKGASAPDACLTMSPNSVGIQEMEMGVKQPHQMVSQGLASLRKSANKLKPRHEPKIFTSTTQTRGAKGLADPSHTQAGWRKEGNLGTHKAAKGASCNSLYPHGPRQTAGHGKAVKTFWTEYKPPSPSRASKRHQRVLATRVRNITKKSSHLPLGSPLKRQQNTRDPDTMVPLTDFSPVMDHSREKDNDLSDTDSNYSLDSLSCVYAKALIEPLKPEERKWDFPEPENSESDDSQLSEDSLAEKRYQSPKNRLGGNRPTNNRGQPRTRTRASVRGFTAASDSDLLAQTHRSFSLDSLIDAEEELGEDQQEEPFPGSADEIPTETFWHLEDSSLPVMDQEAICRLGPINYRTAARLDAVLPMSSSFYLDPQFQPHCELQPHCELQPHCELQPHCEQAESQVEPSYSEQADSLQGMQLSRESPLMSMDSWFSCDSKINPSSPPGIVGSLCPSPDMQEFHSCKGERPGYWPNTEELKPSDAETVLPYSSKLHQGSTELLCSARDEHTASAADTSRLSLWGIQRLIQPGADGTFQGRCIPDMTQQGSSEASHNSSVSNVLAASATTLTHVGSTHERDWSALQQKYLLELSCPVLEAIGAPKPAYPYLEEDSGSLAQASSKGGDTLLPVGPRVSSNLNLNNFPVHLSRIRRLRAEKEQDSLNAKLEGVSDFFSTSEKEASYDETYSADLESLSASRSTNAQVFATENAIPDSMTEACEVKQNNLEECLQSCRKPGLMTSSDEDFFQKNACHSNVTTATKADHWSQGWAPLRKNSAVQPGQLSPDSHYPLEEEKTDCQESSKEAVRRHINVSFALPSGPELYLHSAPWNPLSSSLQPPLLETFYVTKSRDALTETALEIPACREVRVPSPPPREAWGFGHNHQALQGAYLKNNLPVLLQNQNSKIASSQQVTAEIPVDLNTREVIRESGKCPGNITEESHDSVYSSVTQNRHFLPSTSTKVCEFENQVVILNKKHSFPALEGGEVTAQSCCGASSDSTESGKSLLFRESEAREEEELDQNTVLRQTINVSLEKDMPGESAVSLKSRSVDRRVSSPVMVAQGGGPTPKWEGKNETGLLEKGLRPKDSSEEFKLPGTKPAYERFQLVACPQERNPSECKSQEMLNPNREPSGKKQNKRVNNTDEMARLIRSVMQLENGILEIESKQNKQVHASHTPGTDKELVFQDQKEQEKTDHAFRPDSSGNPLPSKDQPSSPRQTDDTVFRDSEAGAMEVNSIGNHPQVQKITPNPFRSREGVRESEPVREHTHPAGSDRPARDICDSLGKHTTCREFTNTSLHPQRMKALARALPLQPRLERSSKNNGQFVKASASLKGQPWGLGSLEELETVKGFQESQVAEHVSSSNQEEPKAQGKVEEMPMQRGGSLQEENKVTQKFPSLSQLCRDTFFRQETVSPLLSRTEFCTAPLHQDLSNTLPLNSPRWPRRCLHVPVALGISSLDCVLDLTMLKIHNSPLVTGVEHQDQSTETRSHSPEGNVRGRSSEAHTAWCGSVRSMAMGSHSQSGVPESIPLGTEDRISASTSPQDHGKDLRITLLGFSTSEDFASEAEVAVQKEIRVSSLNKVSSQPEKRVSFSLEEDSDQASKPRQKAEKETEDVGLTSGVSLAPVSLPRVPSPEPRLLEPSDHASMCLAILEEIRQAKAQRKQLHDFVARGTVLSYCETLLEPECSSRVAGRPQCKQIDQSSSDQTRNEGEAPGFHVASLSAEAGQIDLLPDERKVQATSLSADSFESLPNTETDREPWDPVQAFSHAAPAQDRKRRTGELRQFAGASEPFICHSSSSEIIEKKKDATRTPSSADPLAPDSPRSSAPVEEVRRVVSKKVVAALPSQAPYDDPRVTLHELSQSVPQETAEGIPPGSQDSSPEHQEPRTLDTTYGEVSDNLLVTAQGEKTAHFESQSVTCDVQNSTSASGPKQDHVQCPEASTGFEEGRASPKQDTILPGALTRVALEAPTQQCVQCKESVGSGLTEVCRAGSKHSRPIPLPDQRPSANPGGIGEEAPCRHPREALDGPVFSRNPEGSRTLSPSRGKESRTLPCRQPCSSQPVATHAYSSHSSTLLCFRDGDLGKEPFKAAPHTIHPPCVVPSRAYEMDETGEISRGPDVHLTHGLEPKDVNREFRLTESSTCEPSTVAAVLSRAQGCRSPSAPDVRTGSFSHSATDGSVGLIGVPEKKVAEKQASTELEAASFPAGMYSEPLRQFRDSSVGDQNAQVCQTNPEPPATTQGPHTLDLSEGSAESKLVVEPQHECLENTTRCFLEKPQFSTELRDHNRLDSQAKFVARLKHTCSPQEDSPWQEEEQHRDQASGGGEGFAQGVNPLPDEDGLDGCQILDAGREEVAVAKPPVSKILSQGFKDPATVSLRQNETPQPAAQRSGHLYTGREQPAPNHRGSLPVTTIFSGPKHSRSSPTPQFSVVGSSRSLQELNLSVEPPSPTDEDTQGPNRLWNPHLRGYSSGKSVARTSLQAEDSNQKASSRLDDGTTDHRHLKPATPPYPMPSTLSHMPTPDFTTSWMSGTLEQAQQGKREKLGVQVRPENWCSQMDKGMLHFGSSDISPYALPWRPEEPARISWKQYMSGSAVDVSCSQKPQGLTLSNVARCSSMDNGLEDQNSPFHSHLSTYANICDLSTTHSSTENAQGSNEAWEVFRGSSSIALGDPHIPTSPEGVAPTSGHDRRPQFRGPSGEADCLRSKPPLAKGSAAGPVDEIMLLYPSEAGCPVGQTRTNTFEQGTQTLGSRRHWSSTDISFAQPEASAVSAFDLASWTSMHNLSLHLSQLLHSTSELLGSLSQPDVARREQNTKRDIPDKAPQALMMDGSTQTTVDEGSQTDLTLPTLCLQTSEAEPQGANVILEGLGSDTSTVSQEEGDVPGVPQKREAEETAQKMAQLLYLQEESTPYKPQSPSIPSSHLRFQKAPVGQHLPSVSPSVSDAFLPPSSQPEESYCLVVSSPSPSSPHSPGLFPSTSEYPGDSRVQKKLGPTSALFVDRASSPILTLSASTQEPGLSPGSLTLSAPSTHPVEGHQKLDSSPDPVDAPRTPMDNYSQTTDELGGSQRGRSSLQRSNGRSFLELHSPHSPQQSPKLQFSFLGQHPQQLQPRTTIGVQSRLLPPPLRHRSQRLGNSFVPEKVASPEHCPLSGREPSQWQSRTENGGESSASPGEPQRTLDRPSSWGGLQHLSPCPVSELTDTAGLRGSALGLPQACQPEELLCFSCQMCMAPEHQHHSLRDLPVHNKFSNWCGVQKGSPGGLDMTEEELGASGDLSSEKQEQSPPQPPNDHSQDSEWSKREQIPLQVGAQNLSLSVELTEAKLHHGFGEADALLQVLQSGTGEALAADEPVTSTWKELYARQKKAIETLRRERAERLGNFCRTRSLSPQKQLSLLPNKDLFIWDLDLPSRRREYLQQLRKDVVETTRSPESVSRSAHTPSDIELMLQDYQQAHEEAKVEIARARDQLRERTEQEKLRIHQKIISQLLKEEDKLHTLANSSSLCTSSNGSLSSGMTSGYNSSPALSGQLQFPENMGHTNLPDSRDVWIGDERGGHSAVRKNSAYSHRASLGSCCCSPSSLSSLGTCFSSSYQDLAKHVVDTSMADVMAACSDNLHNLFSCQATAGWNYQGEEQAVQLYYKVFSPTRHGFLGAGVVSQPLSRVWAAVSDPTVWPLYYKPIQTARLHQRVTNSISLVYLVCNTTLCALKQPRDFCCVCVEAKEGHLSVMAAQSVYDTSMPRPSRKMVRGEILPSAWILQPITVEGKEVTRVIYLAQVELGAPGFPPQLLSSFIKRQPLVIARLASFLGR
UniProt Q9P0W8: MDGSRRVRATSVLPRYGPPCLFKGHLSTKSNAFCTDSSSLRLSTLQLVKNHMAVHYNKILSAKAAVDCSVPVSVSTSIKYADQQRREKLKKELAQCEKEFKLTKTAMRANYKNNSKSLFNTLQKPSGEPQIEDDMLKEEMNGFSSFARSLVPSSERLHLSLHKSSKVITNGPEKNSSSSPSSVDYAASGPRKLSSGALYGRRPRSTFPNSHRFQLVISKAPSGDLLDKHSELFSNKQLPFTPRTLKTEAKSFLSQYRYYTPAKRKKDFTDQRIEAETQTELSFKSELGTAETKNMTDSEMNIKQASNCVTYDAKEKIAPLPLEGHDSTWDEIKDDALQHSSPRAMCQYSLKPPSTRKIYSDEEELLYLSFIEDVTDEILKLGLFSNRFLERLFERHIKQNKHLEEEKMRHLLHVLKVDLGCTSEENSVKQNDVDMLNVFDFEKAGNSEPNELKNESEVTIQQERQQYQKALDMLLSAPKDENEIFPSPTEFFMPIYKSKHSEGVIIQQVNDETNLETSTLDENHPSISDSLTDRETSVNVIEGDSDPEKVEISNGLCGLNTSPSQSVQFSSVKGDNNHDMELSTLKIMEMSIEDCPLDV
UniProt Q9NUQ6: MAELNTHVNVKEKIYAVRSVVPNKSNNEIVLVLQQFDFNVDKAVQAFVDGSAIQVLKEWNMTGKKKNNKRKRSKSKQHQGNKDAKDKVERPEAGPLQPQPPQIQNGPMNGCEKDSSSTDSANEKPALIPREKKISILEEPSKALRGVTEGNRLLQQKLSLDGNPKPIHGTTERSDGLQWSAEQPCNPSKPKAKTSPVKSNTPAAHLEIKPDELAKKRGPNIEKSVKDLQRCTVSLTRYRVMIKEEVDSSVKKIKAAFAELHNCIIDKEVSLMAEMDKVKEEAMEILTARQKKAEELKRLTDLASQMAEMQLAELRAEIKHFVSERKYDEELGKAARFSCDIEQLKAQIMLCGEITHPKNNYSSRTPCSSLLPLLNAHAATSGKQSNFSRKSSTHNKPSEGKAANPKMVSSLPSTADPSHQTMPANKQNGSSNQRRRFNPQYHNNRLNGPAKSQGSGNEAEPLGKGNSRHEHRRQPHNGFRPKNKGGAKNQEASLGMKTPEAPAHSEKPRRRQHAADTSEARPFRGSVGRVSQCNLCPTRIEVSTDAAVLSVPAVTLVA
UniProt P19623: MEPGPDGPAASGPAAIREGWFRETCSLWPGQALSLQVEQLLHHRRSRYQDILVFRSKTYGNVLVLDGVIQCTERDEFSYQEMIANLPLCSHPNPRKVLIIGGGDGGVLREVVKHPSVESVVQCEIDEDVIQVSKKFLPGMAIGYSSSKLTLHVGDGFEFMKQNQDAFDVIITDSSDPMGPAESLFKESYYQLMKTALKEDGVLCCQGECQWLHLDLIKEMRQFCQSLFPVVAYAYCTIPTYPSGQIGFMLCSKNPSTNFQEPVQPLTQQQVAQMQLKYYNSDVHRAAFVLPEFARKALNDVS
UniProt Q13103: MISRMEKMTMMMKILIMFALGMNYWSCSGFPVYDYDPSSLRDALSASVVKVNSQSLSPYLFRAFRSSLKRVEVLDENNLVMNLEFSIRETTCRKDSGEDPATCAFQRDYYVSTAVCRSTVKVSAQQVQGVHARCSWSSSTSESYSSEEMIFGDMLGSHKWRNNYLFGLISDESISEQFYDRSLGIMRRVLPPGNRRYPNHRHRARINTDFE
UniProt P35325: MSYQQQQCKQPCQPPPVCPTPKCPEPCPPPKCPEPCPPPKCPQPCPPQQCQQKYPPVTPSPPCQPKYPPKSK

Columns and labels:
Assay in all cases: log2 fold change, soluble protein after heating vs DMSO (PISA); higher = thermal stabilisation; K562 lysate, 10 uM; active = over 0.2 and 3.5 SD of the protein, either way, in both replicates (recomputed)
lapatinib = compound: CS(=O)(=O)CCNCc1ccc(-c2ccc3ncnc(Nc4ccc(OCc5cccc(F)c5)c(Cl)c4)c3c2)o1 [lapatinib]
Summary of the method: (§1)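 Log-two fold change in thermal stability relative to solvent controls is reported from duplicates. For each sample, crude K562 extract from dounce-homogenised pellets in PBS pH 7.4 with 1 mM MgCl2, at 1 mg/mL protein, was treated with 10 μM compound for 30 min. Aliquots heated for 3 min across 48°C-58°C were pooled, brought to 0.5% NP-40 at 4°C and cleared at 21,000xg for 90 min. The supernatant was quantified by TMTpro 16plex LC-MS/MS with channel sums equalised.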

pictilisib = compound: CS(=O)(=O)N1CCN(Cc2cc3nc(-c4cccc5[nH]ncc45)nc(N4CCOCC4)c3s2)CC1 [pictilisib]
Summary of the method: as §1

crizotinib = compound: C[C@@H](Oc1cc(-c2cnn(C3CCNCC3)c2)cnc1N)c1c(Cl)ccc(F)c1Cl [crizotinib]
Summary of the method: as §1

[1] = compound: C[C@H](C1=CC=C(C=C1)C(=O)NC2=C3C=CNC3=NC=C2)N
Summary of the method: as §1

duvelisib = compound: C[C@H](Nc1ncnc2nc[nH]c12)c1cc2cccc(Cl)c2c(=O)n1-c1ccccc1 [duvelisib]
Summary of the method: as §1

gandotinib = compound: Cc1cc(Nc2cc(CN3CCOCC3)c3nc(C)c(Cc4ccc(Cl)cc4F)n3n2)n[nH]1 [gandotinib]
Summary of the method: as §1

tozasertib = compound: Cc1cc(Nc2cc(N3CCN(C)CC3)nc(Sc3ccc(NC(=O)C4CC4)cc3)n2)n[nH]1 [tozasertib]
Summary of the method: as §1

doramapimod = compound: Cc1ccc(-n2nc(C(C)(C)C)cc2NC(=O)Nc2ccc(OCCN3CCOCC3)c3ccccc23)cc1 [doramapimod]
Summary of the method: as §1

bafetinib = compound: Cc1ccc(NC(=O)c2ccc(CN3CC[C@H](N(C)C)C3)c(C(F)(F)F)c2)cc1Nc1nccc(-c2cncnc2)n1 [bafetinib]
Summary of the method: as §1

[2] = compound: Cc1cccc(CC(=O)N2CCc3c2ccc(-c2cn(C)c4ncnc(N)c24)c3F)n1
Summary of the method: as §1

nilotinib = compound: Cc1cn(-c2cc(NC(=O)c3ccc(C)c(Nc4nccc(-c5cccnc5)n4)c3)cc(C(F)(F)F)c2)cn1 [nilotinib]
Summary of the method: as §1

[3] = compound: Cc1nc(Nc2n[nH]c3c2CN(C(=O)N[C@H](CN(C)C)c2ccccc2)C3(C)C)c2sccc2n1
Summary of the method: as §1

dasatinib = compound: Cc1nc(Nc2ncc(C(=O)Nc3c(C)cccc3Cl)s2)cc(N2CCN(CCO)CC2)n1 [dasatinib]
Summary of the method: as §1

[4] = compound: Cc1ncc(-c2ccnc(Nc3ccc(S(C)(=O)=O)cc3)n2)n1C(C)C
Summary of the method: as §1

[5] = compound: Cn1cc(-c2ccc3c(c2)CCN3C(=O)Cc2cccc(C(F)(F)F)c2)c2c(N)ncnc21
Summary of the method: as §1

quisinostat = compound: Cn1cc(CNCC2CCN(c3ncc(C(=O)NO)cn3)CC2)c2ccccc21 [quisinostat]
Summary of the method: as §1

tipifarnib = compound: Cn1cncc1[C@@](N)(c1ccc(Cl)cc1)c1ccc2c(c1)c(-c1cccc(Cl)c1)cc(=O)n2C [tipifarnib]
Summary of the method: as §1

[6] = compound: NC(=O)Nc1cc(-c2cccc(F)c2)sc1C(=O)N[C@H]1CCCNC1
Summary of the method: as §1

[7] = compound: NC(=O)c1cnc(N[C@@H]2CCCC[C@@H]2N)nc1Nc1cccc(-n2nccn2)c1
Summary of the method: as §1

[8] = compound: NC1(c2ccc(-c3nc4ccn5c(=O)[nH]nc5c4cc3-c3ccccc3)cc2)CCC1
Summary of the method: as §1

Measured: log2 fold change

SPIRE1 (UniProt Q08AE8)
active: [1] -0.281
inactive: lapatinib -0.019 | pictilisib 0.012 | crizotinib -0.072 | duvelisib -0.021 | gandotinib 0.128 | tozasertib -0.023 | doramapimod 0.151 | bafetinib -0.031 | [2] 0.134 | nilotinib 0.064 | [3] 0.011 | dasatinib 0.037 | [4] -0.03 | [5] 0.025 | quisinostat -0.186 | tipifarnib 0.055 | [6] -0.032 | [7] 0.042 | [8] -0.01

SREK1IP1 (UniProt Q8N9Q2)
inactive: lapatinib -0.022 | crizotinib 0.079 | [1] 0.196 | gandotinib -0.111 | tozasertib 0.081 | doramapimod -0.046 | [2] -0.143 | nilotinib -0.071 | [3] -0.049 | [4] 0.105 | quisinostat 0.08 | tipifarnib 0.044 | [6] -0.022 | [7] -0.07 | [8] -0.002

STARD9 (UniProt Q9P2P6)
inactive: lapatinib -0.006 | crizotinib -0.048 | [1] 0.031 | duvelisib 0.007 | gandotinib -0.157 | tozasertib -0.007 | doramapimod 0.095 | [2] 0 | nilotinib -0.026 | [3] -0.091 | dasatinib 0.018 | [4] 0.009 | [5] -0.108 | quisinostat -0.092 | tipifarnib 0.061 | [6] 0.052 | [7] 0.058 | [8] -0.04

SPDL1 (UniProt Q96EA4)
inactive: lapatinib 0.013 | pictilisib 0.022 | crizotinib 0.023 | [1] -0.08 | duvelisib 0.006 | gandotinib 0.046 | tozasertib 0.049 | doramapimod -0.008 | bafetinib -0.032 | [2] 0.042 | nilotinib 0.021 | [3] -0.026 | dasatinib 0.076 | [4] 0.022 | [5] 0.01 | quisinostat 0.037 | tipifarnib 0.02 | [6] -0.018 | [7] -0.007 | [8] -0.045

SRC isoform 2 (UniProt P12931)
inactive: lapatinib -0.001 | pictilisib -0.078 | [1] 0.151 | duvelisib 0.001 | gandotinib 0.061 | tozasertib 0.098 | bafetinib -0.153 | [2] -0.015 | [5] -0.023 | [7] 0.015 | [8] 0.012

SPATA7 (UniProt Q9P0W8)
inactive: lapatinib -0.048 | pictilisib -0.052 | [1] -0.602 | gandotinib 0.365 | tozasertib -0.168 | bafetinib -0.11 | [2] 0.351 | nilotinib -0.333 | [3] -0.049 | [4] 0.066 | tipifarnib 0.099 | [7] 0.017 | [8] -0.115

SPATS2L isoform 2 (UniProt Q9NUQ6)
inactive: lapatinib 0.153 | pictilisib 0.062 | crizotinib 0.013 | [1] 0.268 | gandotinib -0.116 | tozasertib 0.032 | doramapimod 0.048 | bafetinib -0.024 | [2] -0.148 | nilotinib 0.004 | [3] 0.102 | [4] -0.03 | quisinostat -0.198 | tipifarnib -0.069 | [6] -0.059 | [7] 0.121 | [8] 0.09

SPINT1 (UniProt O43278)
inactive: lapatinib -0.048 | pictilisib -0.023 | crizotinib 0.103 | [1] 0.04 | gandotinib 0.009 | doramapimod 0.096 | bafetinib -0.05 | [2] 0.004 | nilotinib 0.055 | [3] -0.023 | [4] 0.049 | quisinostat 0.029 | tipifarnib 0.036 | [6] 0.013 | [7] 0.033 | [8] 0.061

SRM (UniProt P19623)
inactive: lapatinib -0.015 | pictilisib -0.013 | crizotinib -0.048 | [1] -0.032 | gandotinib -0.036 | tozasertib 0.01 | doramapimod -0.017 | bafetinib -0.009 | [2] -0.033 | nilotinib 0.026 | [3] -0.009 | dasatinib -0.008 | [4] 0.009 | [5] 0.012 | quisinostat 0.009 | tipifarnib 0.014 | [6] 0.041 | [7] 0.017 | [8] 0.045
active: duvelisib 0.716

SPP2 (UniProt Q13103)
inactive: lapatinib -0.05 | pictilisib -0.009 | [1] 0.025 | gandotinib 0.047 | bafetinib 0.05 | [2] -0.079 | [7] -0.098

SPPL2A (UniProt Q8TCT8)
inactive: lapatinib -0.002 | pictilisib -0.059 | crizotinib -0.127 | [1] -0.302 | gandotinib -0.093 | tozasertib 0.082 | doramapimod -0.032 | bafetinib -0.127 | [2] 0.1 | quisinostat -0.21 | [6] 0.046 | [7] 0 | [8] -0.072

SRPK2 isoform 2 (UniProt P78362)
inactive: lapatinib -0.031 | pictilisib 0.004 | crizotinib -0.054 | [1] -0.099 | duvelisib 0.083 | gandotinib 0.1 | tozasertib -0.021 | doramapimod 0.182 | bafetinib -0.064 | [2] 0.017 | nilotinib -0.005 | [3] 0.077 | dasatinib 0.004 | [4] -0.002 | [5] -0.004 | quisinostat -0.09 | tipifarnib 0.001 | [6] 0.119 | [7] 0.006 | [8] -0.034

SPRR2B (UniProt P35325)
inactive: lapatinib 0.023 | pictilisib -0.008 | crizotinib -0.058 | [1] 0.174 | gandotinib 0.93 | tozasertib 0.17 | doramapimod 0.099 | bafetinib 0.122 | [2] -0.14 | quisinostat -0.041 | [6] -0.099 | [7] 0.037 | [8] 0.149
